Among the data in US20150233927A1 are binding values, retold here.

Amino acid sequences for entries named in this document (tags omitted). A change or cut given only in a name is not applied to a line headed by its entry.
UniProt P81947: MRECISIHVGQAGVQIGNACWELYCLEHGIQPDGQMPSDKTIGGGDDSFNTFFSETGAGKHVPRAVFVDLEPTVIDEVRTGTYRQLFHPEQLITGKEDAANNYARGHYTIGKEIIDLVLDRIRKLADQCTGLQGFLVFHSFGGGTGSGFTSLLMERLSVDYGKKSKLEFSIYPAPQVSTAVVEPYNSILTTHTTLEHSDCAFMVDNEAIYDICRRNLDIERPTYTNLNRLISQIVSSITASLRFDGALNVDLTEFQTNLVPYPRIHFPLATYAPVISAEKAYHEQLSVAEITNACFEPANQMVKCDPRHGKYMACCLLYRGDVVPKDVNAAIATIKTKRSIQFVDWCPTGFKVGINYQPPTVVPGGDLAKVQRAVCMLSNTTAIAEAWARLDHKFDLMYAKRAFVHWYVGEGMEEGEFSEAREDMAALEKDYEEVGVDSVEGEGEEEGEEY
UniProt Q6B856: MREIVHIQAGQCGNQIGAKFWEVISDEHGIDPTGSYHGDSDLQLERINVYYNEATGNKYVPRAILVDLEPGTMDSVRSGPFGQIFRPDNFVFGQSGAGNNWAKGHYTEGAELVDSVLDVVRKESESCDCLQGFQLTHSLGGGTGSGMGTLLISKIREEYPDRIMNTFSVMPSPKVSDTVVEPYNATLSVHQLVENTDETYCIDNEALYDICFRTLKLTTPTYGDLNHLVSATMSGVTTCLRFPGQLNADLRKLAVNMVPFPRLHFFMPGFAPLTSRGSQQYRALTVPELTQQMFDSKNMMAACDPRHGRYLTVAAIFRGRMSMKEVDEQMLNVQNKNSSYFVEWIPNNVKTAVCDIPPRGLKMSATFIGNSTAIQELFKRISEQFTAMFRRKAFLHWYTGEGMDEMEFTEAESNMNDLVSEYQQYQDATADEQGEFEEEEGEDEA
UniProt P10275: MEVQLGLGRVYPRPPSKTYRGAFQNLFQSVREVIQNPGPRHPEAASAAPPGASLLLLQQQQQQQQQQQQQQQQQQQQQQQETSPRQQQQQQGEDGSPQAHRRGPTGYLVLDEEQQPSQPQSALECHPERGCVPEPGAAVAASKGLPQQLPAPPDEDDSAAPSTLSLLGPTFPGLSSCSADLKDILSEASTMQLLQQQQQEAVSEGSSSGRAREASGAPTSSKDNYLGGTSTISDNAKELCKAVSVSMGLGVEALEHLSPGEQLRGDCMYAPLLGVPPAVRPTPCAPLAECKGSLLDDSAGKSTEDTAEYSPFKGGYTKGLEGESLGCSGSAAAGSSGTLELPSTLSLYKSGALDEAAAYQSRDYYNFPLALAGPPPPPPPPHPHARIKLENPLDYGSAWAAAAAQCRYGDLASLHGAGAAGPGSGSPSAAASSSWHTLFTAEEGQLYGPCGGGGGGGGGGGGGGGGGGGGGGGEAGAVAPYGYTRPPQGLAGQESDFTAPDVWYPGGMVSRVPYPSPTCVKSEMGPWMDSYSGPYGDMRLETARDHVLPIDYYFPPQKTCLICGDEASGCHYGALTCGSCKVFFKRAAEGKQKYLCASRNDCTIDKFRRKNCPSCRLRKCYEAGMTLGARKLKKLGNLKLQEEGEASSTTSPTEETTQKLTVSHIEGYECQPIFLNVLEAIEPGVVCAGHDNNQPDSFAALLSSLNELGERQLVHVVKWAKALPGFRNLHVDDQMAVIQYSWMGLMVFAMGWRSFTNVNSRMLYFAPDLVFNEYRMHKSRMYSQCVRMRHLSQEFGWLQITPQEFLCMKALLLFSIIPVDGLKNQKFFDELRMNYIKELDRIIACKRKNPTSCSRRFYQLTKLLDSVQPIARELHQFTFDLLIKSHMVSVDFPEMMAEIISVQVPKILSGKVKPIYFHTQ
UniProt O97775: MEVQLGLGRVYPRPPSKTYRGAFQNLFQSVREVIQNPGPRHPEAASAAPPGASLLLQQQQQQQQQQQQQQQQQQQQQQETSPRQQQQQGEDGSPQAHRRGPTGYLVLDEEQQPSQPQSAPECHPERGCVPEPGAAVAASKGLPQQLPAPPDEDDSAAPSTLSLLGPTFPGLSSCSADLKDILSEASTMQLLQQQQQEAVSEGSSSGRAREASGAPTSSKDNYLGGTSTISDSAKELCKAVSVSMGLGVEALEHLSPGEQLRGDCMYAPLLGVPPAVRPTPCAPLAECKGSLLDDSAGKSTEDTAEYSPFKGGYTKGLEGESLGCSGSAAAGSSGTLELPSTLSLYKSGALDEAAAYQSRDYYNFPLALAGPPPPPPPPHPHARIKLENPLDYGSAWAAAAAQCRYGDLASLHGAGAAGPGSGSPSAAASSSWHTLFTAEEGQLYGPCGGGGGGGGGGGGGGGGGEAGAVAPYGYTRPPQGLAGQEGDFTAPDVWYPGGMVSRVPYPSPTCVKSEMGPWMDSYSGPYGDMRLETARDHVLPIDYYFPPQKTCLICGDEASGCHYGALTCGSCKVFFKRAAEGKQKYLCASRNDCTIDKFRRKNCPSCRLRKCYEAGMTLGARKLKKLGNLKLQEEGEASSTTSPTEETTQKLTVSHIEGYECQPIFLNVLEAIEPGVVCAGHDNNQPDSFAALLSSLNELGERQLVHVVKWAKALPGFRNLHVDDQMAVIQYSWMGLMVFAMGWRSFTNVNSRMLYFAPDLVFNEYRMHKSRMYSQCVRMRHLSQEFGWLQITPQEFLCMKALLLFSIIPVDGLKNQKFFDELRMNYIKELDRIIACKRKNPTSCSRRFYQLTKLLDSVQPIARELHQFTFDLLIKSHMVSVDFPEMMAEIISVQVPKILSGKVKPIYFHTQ

These are yes or no findings as the source states them, for the method shown. Some binding calls cover weakened binding; strength is not graded here.

Test [1] addresses T1, microtubule polymers (polymerized tubulin) (bovine) (UniProt P81947+Q6B856). In words: microtubule co-sedimentation, PC3:mCh-tub cell lysate, immunoblot.
Test [2] concerns the target T1, microtubule polymers (polymerized tubulin) (bovine). Kind of test: microtubule co-sedimentation, HEK293 cell lysate, immunoblot.
Test [3] has the same target. Kind of test: microtubule co-sedimentation, cell lysate; positive control.

“HA-tagged androgen receptor splice variant v5,6,7 (from UniProt P10275 1-724)”: in test [1], the binding result was “binds”.
For “GFP-tagged C-terminal domain of the androgen receptor (amino acids 540-919) (from UniProt O97775 532-911)”, the binding result in test [1] and in test [2] was “binds” in each case.
On to “GFP-tagged full-length wild-type human androgen receptor (from UniProt P10275 1-920)”, for which the binding result in test [1], in test [2] and in test [3] was “binds” each time.
